In paper PMC10866537:
These are yes or no findings as the source states them, for the method shown. Some binding calls cover weakened binding; strength is not graded here.

Sequences of proteins named here, by UniProt entry; tags and fusion partners are left off. Residues count along the entry.
UniProt P41273: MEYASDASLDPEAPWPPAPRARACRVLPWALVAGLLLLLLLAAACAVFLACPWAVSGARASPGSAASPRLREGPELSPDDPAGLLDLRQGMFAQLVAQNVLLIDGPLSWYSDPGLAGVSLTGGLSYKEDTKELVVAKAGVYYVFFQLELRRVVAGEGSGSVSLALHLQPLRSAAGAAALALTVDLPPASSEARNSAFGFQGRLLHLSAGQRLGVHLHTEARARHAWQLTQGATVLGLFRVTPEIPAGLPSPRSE
UniProt P34741, residues 19-201: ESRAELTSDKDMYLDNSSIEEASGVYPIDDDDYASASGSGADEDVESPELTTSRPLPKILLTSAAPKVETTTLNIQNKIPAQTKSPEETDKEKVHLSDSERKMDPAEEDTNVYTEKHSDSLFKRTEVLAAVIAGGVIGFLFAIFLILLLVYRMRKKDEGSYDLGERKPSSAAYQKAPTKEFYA
UniProt Q07011, residues 24-189: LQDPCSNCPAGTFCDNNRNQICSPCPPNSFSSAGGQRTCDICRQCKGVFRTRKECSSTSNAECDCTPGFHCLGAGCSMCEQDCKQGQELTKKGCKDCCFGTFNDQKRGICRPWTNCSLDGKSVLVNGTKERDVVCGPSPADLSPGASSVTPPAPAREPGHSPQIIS
UniProt P16410, residues 38-162: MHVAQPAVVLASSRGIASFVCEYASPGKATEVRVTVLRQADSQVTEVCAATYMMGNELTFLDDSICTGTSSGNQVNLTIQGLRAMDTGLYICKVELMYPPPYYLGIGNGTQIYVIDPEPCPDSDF

Key:
[1] = target: T1, siglec-4 on 293-VM-14.7 activator cells (gene switched on by gRNA) (human (endogenous in HEK293)) (UniProt P20916); assay: pooled CRISPRa screen, serial magnetic-activated cell sorting (MACS) with bait-coated beads; biotinylated bait ED on streptavidin microbeads; library-transduced 293-VM-14.7 activator cells, 4°C 1.5 h, PBS/0.5% BSA; up to four rounds; read by flow cytometry with antibodies and deep sequencing of gRNAs; original and new stringent gRNA library; only the binder purified
T1 sequence: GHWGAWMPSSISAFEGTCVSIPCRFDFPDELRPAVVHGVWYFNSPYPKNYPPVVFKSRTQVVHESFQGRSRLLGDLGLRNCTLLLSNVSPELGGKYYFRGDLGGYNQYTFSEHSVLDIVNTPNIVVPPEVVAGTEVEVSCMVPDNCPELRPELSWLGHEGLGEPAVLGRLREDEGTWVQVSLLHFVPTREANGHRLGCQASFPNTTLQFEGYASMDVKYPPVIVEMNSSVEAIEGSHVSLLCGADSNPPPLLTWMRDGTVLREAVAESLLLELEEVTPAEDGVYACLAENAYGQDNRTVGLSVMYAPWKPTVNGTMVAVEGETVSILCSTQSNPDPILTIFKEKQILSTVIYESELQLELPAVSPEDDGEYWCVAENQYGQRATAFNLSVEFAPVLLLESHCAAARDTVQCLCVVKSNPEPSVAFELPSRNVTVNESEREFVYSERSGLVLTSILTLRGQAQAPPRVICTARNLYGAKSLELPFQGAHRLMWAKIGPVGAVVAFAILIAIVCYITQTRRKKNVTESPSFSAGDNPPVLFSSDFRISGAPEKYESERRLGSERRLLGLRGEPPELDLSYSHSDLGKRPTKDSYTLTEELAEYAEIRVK

[2] = target: 4-1BB ligand on 293-VM-14.7 activator cells (gene switched on by gRNA) (human (endogenous in HEK293)) (UniProt P41273); assay: as above
[3] = target: human syndecan-2 expressed from a plasmid in HEK293 activator cells (human) (UniProt P34741); assay: condition: 1 μg of biotinylated CTLA4 protein/5 × 10^5 cells in 100 μl; flow cytometry on cells; 1 μg biotinylated CTLA4 protein per 5 × 10^5 transfected HEK293 activator cells in 100 μl PBS/BSA, then APC-streptavidin; only the binder purified
[4] = target: T2, human syndecan-1 expressed from a plasmid in HEK293 activator cells (human) (UniProt P18827); assay: as above
T2 sequence: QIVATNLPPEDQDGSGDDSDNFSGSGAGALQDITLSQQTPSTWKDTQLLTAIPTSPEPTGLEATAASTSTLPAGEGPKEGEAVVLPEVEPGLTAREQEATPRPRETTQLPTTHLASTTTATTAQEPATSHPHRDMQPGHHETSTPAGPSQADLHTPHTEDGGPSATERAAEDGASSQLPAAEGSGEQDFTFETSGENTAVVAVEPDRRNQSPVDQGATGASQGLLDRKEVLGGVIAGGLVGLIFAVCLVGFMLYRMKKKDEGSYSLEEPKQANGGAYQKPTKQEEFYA

binding [1]	binding [2]	binding [3]	binding [4]	Substance
binds	binds	–	–	biotinylated 4-1BB ectodomain (4-1BB-CD4d3+4-bio-HIS) (from UniProt Q07011 24-189) (domain or fragment)
–	–	no binding	no binding	biotinylated CTLA4 ectodomain (CTLA4-CD4d3+4-bio-HIS) (from UniProt P16410-1 38-162) (domain or fragment)
